# Library compounds against nucleic acid targets

Source: the ROBIN nucleic acid binder screens (doi:10.1002/anie.202211358).

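Compounds were printed on reactive glass slides in duplicate spots, a dye-labelled oligonucleotide was laid over them, and the fluorescence left after washing was read. The data file lists only calls. An earlier report of the laboratory on the PreQ1, TPP and SAM-II riboswitches (doi:10.1038/s41467-019-09493-3) used 1 µM RNA for 2 h and required a mean Z-score above 3 (spot signal-to-noise against the whole library), a score well above that on a control array, and duplicate spots agreeing (coefficient of variation under 100); it then also set aside compounds that hit other targets, which this list keeps. The cut-offs behind this list may differ. A missing hit is not proof of no binding, and a hit is not a measured affinity.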 A compound is marked active if it was called a hit and inactive if it was screened but was not. Compounds were drawn at random from those tested, without regard to their results. A dash means that no call is listed here.

Targets, with sequences 5′ to 3′:
TPP: TPP riboswitch RNA three-way junction, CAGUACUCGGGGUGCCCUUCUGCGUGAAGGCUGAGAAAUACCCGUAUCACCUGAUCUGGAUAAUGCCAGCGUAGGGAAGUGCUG. About 24,000 compounds screened, about 160 hits.
PreQ1: PreQ1 riboswitch RNA pseudoknot, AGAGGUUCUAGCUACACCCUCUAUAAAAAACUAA. From B. subtilis. About 24,000 compounds screened, about 170 hits.
SAM-II: SAM-II riboswitch RNA pseudoknot, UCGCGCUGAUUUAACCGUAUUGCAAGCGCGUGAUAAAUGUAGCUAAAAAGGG. About 21,000 compounds screened, about 200 hits.

Compound	TPP	PreQ1	SAM-II
CC(C)Oc1ccc(Oc2nc(NC3CC3)nc(N(C)C)n2)nn1	inactive	inactive	inactive
S=c1nc[nH]c2c1ncn2C1CCCC1	inactive	inactive	inactive
O=C(NCCCNc1cccnc1)c1ccc(-c2cc[nH]n2)cc1	inactive	inactive	inactive
NC1=C(c2nc3ccccc3s2)C(=O)CN1c1cccc2ccccc12	inactive	inactive	-
CCOc1cc(-c2ccc(F)cc2)nc2ccc(N)cc12	inactive	inactive	inactive
Nc1cc(=O)nc(SCC(=O)NC2CCCCC2)n1-c1ccccc1	inactive	inactive	inactive
CC1(C)CC(NC(=O)c2sc3cc(Cl)ccc3c2Cl)CC(C)(C)N1	inactive	inactive	inactive
CN(Cc1ccc(-n2cccn2)cc1)C(=O)c1cccc(CO)n1	inactive	inactive	inactive
O=C(NCc1ccc(C(F)(F)F)cc1F)C1CCN(CCO)CC1	inactive	inactive	inactive
COc1ccc(C(N)=O)cc1N	inactive	inactive	inactive
CCc1nc2ccccc2n1CC(O)COc1ccccc1C (stereo unspecified)	inactive	inactive	-
O=S1(=O)C[C@H](NCCc2ccccc2F)[C@@H](S(=O)(=O)c2ccc(F)cc2)C1	inactive	inactive	-
COc1ccc(Nc2c(-c3cc(C)c(C)cc3C)c(=O)c2=O)cc1	inactive	inactive	-
Cc1ccc(Cl)cc1NC(=O)c1sc2nc(-c3ccncc3)ccc2c1N	inactive	inactive	inactive
CC(C)CCNc1nc2c(S(=O)(=O)c3ccccc3)nnn2c2ccccc12	inactive	inactive	inactive
CCOc1ccc(-c2noc(-c3nnn(-c4ccccc4Cl)c3N)n2)cc1	inactive	inactive	-
CC(=O)c1cc(O)c2ccccc2c1O	inactive	inactive	inactive
CCc1n(CC(O)COCc2ccccc2)c2ccccc2[n+]1C (stereo unspecified)	inactive	inactive	inactive
CCc1cc(N2CCN([C@H]3CCCC[C@@H]3O)CC2)n2nc(C)c(C)c2n1	inactive	inactive	inactive
O=C(Nc1cc(Cl)cc2c1[nH]c1cnccc12)c1cccnc1	inactive	inactive	inactive
CC(O)CNc1nc(C2CC2)nc2c1CCN(C(=O)c1cc[nH]n1)CC2 (stereo unspecified)	inactive	inactive	inactive
C=CCc1ccc(OCC(O)CNC(C)(C)CC(C)(C)C)c(OC)c1.Cl (stereo unspecified)	inactive	inactive	inactive
CCOC(=O)C1=C(N)OC(C)=C(C(=O)OCc2ccccc2)C12C(=O)N(C)c1ccccc12 (stereo unspecified)	inactive	inactive	inactive
CCOC(=O)c1nn(C)c2[nH]c(=O)n(C)c(=O)c12	inactive	inactive	inactive
CC(NCc1ccc2c(c1)n(C)c(=O)n2C)c1ccccc1 (stereo unspecified)	inactive	inactive	-
CCc1nc2nc(C)cc(Nc3cc(C)cc(C)c3)n2n1	inactive	inactive	inactive
CCOc1cc(-c2ccc(OC)cc2)nc2ccc(N)cc12	inactive	inactive	inactive
NCCc1cccc(CN2CCC(CCN3CCCC3=O)CC2)c1	inactive	inactive	inactive
Cc1ccc(N2CC(=O)C(c3nc4ccccc4s3)=C2N)c(Br)c1	inactive	inactive	-
Cc1cc(CN2CCN(c3c(Br)cnc4nc(-c5ccc(N6CCN(C)CC6)cc5)[nH]c34)CC2)no1	inactive	inactive	inactive
COCCNc1oc(-c2ccccc2F)nc1S(=O)(=O)c1ccc(F)cc1	inactive	inactive	-
CNc1nc(CN2CCN(C(=O)c3cc[nH]c3C)CC(O)C2)cs1 (stereo unspecified)	inactive	inactive	inactive
O=C(C1CCOCC1)N1C[C@@H](CN2CCCCCC2)[C@@H](CO)C1	inactive	inactive	inactive
Cc1ccc(-c2nc3cnccn3c2Nc2ccc(C(=O)O)cc2)cc1	inactive	inactive	-
O=C(O)c1cccc(-c2noc(-c3ccccc3F)n2)c1	inactive	inactive	inactive
CCCNc1nc2c(-c3cccc(F)c3)nnn2c2ccc(Cl)cc12	inactive	inactive	inactive
Cc1ccc(CN2CCC3(CC2)c2ccccc2CC3O)s1 (stereo unspecified)	inactive	inactive	inactive
Nc1ccc(Sc2nc3ccccc3s2)cc1	inactive	inactive	inactive
CC(C)c1cc(C(=O)NCCc2nnc(N)s2)no1	inactive	inactive	inactive
CNc1oc(-c2ccc(F)cc2)nc1S(=O)(=O)c1ccccc1	inactive	inactive	inactive
COc1cc(N2Cc3cnn(CCO)c3C2)ncn1	inactive	inactive	inactive
C[C@]1(O)CCN(C(=O)Cc2nc3cc(Cl)ccc3[nH]2)C[C@@H]1O	inactive	inactive	inactive
Cl.OC12CC3CC(C1)CC(NCC=Cc1ccccc1)(C3)C2	inactive	inactive	inactive
O[C@H]1CC[C@@H](c2nc(CCc3ccccc3)nn2-c2ccc3c(c2)OCO3)CC1	inactive	inactive	inactive
CCc1ccc(NC(=O)c2nnn(-c3ccc(C)cc3)c2N)cc1	inactive	inactive	inactive
N#Cc1ccc(C(=O)N2C[C@@H](CN3CCCCC3)[C@@H](CO)C2)cn1	inactive	inactive	inactive
CCC1CN(c2nc3ccccc3cc2CO)CCN1C(C)C (stereo unspecified)	inactive	inactive	inactive
CCc1nccn1CC(=O)N1CC[C@@H](NC(=O)c2ccccn2)[C@H](O)C1	inactive	inactive	inactive
Nc1nonc1C(=O)NCCNCc1ccc(Cl)cc1	inactive	inactive	inactive
Cc1cccn2c(CNC(C)CCn3cccn3)cnc12 (stereo unspecified)	inactive	inactive	inactive
COC(=O)c1ccc(NC(c2ccccc2)c2nnc(-c3ccccc3)o2)cc1 (stereo unspecified)	inactive	inactive	inactive
Cc1cc(N2C[C@H](NC(=O)CO)[C@@H](C3CC3)C2)cc(C)n1	inactive	inactive	inactive
CCOC(=O)CSc1nc2ccc(N)cc2s1	inactive	inactive	inactive
Cc1cc(N)n(CC(=O)N2C[C@@H](CN3CCCCCC3)[C@@H](CO)C2)n1	inactive	inactive	inactive
COc1cc(N2CCC3(CCC(=O)N(CCCn4ccnc4)C3)CC2)nc(N)n1	inactive	inactive	inactive
O=C(NC(=S)Nc1ccccn1)c1ccccc1	inactive	inactive	inactive
Cc1cc2oc3c(c(=O)c2cc1C)C1(C(=O)N(C)c2ccccc21)N(CCCO)C3=O (stereo unspecified)	inactive	inactive	-
COc1ccc(S(=O)(=O)N2CC[C@H](CO)[C@H](O)C2)c2c1CCCC2	inactive	inactive	inactive
Cc1cc2nc(O)c(CCO)c(C)n2n1	inactive	inactive	inactive
FC(F)(F)c1cc(-c2ccccc2)nc(NC2CCCC2)n1	inactive	inactive	inactive
N#CC1=C(N)OC2=C(C(=O)CC(c3ccccc3)C2)C1c1cccc(F)c1 (stereo unspecified)	inactive	inactive	inactive
O=C(NCCN1CCCC(CO)C1)c1ccc2sccc2c1 (stereo unspecified)	inactive	inactive	active
Cc1nnnn1CCCN1CC[C@H]2CNC[C@H]21	inactive	inactive	inactive
CC12CN(CO)CC(C)(CN(CC(N)=O)C1)C2=O	inactive	inactive	inactive
Cc1ccc(S(=O)(=O)c2nc(-c3ccc(F)cc3)oc2NCCCn2ccnc2)cc1	inactive	inactive	-
O=C(c1ccc(Nc2c(-c3ccccc3)nc3cnccn23)cc1)N1CCCCC1	inactive	inactive	-
CC(C)(C)NC(=O)c1ccc(C(=O)NC(C)(C)C)cc1	inactive	inactive	inactive
CCc1cnc(N)nc1NCCCn1nccc1C1CC1	inactive	inactive	inactive
Cc1ccc(NCc2cccc3c2CN(CC2CCCO2)C3)cc1C (stereo unspecified)	inactive	inactive	inactive
COc1ccc(-c2nc3ncccn3c2Nc2ccc(F)cc2)cc1	inactive	inactive	inactive
Cc1nc2nncn2c(NCc2ccccc2Cl)c1C	inactive	inactive	-
CCOC(=O)c1cccc(Nc2cnc3ccccc3n2)c1	inactive	inactive	inactive
Nc1cc(C(Cl)=C(Cl)Cl)c(S(N)(=O)=O)cc1S(N)(=O)=O	inactive	inactive	inactive
Cc1ccnc2c1NC(=O)c1cccnc1N2C1CC1	inactive	inactive	inactive
O=C(CCc1cc2n(n1)CCCNC2)N[C@H]1CCC[C@H]1Cc1ccc(F)cc1	inactive	inactive	inactive
COc1ccc(CNC(=O)CN2CC[C@@H](N)[C@H](O)C2)cc1OC	inactive	inactive	inactive
Cc1ccccc1NC(=O)CCc1c(C)nc2nc(CN)nn2c1C	inactive	inactive	-

For reference, 9 entries once more:

Compound,TPP,PreQ1,SAM-II
N#Cc1ccc(C(=O)N2C[C@@H](CN3CCCCC3)[C@@H](CO)C2)cn1,inactive,inactive,inactive
C[C@]1(O)CCN(C(=O)Cc2nc3cc(Cl)ccc3[nH]2)C[C@@H]1O,inactive,inactive,inactive
O=C(O)c1cccc(-c2noc(-c3ccccc3F)n2)c1,inactive,inactive,inactive
Cc1ccnc2c1NC(=O)c1cccnc1N2C1CC1,inactive,inactive,inactive
CC(C)c1cc(C(=O)NCCc2nnc(N)s2)no1,inactive,inactive,inactive
O=C(c1ccc(Nc2c(-c3ccccc3)nc3cnccn23)cc1)N1CCCCC1,inactive,inactive,-
O=C(NC(=S)Nc1ccccn1)c1ccccc1,inactive,inactive,inactive
CCOC(=O)c1nn(C)c2[nH]c(=O)n(C)c(=O)c12,inactive,inactive,inactive
CCOC(=O)CSc1nc2ccc(N)cc2s1,inactive,inactive,inactive